The experiment in a line: qHTS Assay for Lipid Storage Modulators in Drosophila S3 Cells.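 For cell number change: cells counted by Cell Tracker Red CMTPX staining in the red channel.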 The conditions noted are these: BODIPY lipid droplet fluorescence, 18-24 h; for cell number change: measured here: cell count max response, cells fed with added oleic acid. Summed up:
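Drosophila S3 cells loaded with oleic acid (400 uM, as added) and compounds at several concentrations; lipid droplets imaged by 488-nm laser-scanning cytometry, 500–530 nm intensity and object ratio to cell channel. Percent activity normalized to 20 uM Triacsin C.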
Background: In qHTS, concentration-response curves come from the screen itself.

Where [1] appears, read: measured here: cell number channel AC50, cells fed with added oleic acid.
Setting [2] is: measured here: lipid fluorescence (Fed channel) AC50, cells fed with added oleic acid.

Some of the results follow. The main result of the screen is listed elsewhere. These columns were measured beside it and carry no call. Most of these compounds were active or inconclusive in the main read-out, so they are no random draw. Potencies come from curve fits of mixed quality, noted in brackets.

A word on the AC50: it is the midpoint of the concentration-response curve, whichever way the signal moves. Read a high AC50 as weaker potency.

Regarding `COC(=O)c1c(NC(=O)CN2CCC(C(N)=O)CC2)c2c(C)cccc2n1C`, the AC50 under setting [1] is 3.26 µM [falling, single point].
As to `C=CCNC(=O)CSc1nnc(-c2cccs2)o1`, the cell number change is 13.6%. Under setting [2], the AC50 was 13 µM [rising, partial curve, poor fit].
As to `CCOC(=O)c1c(CN(C)C)n(C)c2ccc(OC(C)=O)cc12`, the AC50 under setting [2] was 0.184 µM [rising, full curve].
For the compound `CCN(CC)C1CC(=O)N(c2cccc(Cl)c2)C1=O` (stereo not given), the cell number change was 4.99%. Besides, under setting [2], the AC50 is 29.1 µM [falling, single point].
As to `N#CCC(=O)c1ccccc1Oc1ccc(Cl)cc1`, the cell number change was -63.1%.
In the case of `CCOC(=O)c1c(NC(=O)c2c(-c3ccccc3)noc2C)sc(C)c1-c1ccccc1`, the AC50 under setting [1] was 1.3 µM [rising, partial curve] and the AC50 under setting [2] is 0.259 µM [rising, partial curve, poor fit].
Consider `O=C(Nc1cc(C(F)(F)F)cc(C(F)(F)F)c1)c1ccc(Cn2cc(C(F)(F)F)ccc2=O)cc1`, for which the cell number change is 42.5%. Further, the AC50 under setting [2] was 29.1 µM [falling, single point].
Turning to `Cc1cccc(C)c1NC(=O)c1ccc(-c2ccc(Cl)cc2Cl)o1`, the cell number change was -11.7%. Moreover, the AC50 under setting [1] was 0.00461 µM [rising, full curve, poor fit]. In addition, under setting [2], the AC50 is 0.0326 µM [rising, full curve, poor fit].
Regarding `CCCCOc1ccc(C(=O)NCC(=O)N2CCN(Cc3ccc4c(c3)OCO4)CC2)cc1`, the cell number change amounted to 79.7%. The AC50 under setting [1] is 18.4 µM [rising, partial curve]. Under setting [2], the AC50 is 0.058 µM [falling, full curve, poor fit].
For the compound `O=S(=O)(Nc1ccc2c(c1)OCCO2)c1cnc[nH]1`, the cell number change is -5.27%. Moreover, the AC50 under setting [2] is 32.6 µM [falling, partial curve].
With `CC(=O)Nc1cccc(-c2csc(N)n2)c1`, the cell number change was 17.8%.
As to `Cc1ccc(C(=O)NC(=S)Nc2ccc(N3CCOCC3)cc2)c(C)c1`, the cell number change is -39.8%. In addition, the AC50 under setting [1] is 23.1 µM [falling, single point]. Moreover, the AC50 under setting [2] was 29.1 µM [rising, single point].
Turning to `O=C(CC1OC(=O)c2ccccc21)Nc1cccc(S(=O)(=O)N2CCCCCC2)c1` (stereo not given), the cell number change came out at 1.95%. For the same compound, the half-maximal activity concentration (AC50) under setting [2] was 29.1 µM [falling, single point].
For `COc1ccc(C/C(O)=C(\C#N)c2nc3ccccc3s2)cc1`, under setting [1], the AC50 is 0.092 µM [falling, full curve, poor fit].
On to `NCCNC(=O)c1c(O)c2cccc3c2n(c1=O)CCC3`, for which the cell number change was 8.77%. Moreover, the AC50 under setting [2] is 3.66 µM [falling, single point].
As to `O=C(Nc1cccc(C(=O)O)c1)/C(=C\c1ccc(F)cc1)NC(=O)c1ccco1`, the cell number change came to 20.5%. The AC50 under setting [2] was 0.103 µM [falling, partial curve, poor fit].
As for `CCc1cc2c(-c3ccccc3)cc(=O)oc2cc1OC(=O)c1cccs1`, the cell number change amounted to 2.22%. Further, under setting [2], the AC50 was 4.11 µM [rising, single point].
For the compound `CN1CCN(C(=O)C(Cc2ccccc2)NS(=O)(=O)c2ccc3c(c2)CCC(=O)N3)CC1` (stereo not given), the cell number change is -0.507%.
Take `COc1ccc(S(=O)(=O)N2CCC(C(=O)NCCN3CCOCC3)CC2)cc1`: the cell number change was -28.1%. Further, the AC50 under setting [2] was 18.4 µM [falling, single point].
Consider `CC(=O)c1c(C)[nH]c(C(=O)CSc2nc3ccc(C)cc3[nH]2)c1C`, for which the AC50 is 3.26 µM [rising, partial curve, poor fit] under setting [1] and 6.51 µM [rising, single point] under setting [2].
Take `N/C(Cn1cncn1)=N\OC(=O)c1ccc(Cl)cc1Cl`: the cell number change was -27.2%. Under setting [2], the AC50 is 18.4 µM [falling, single point].
Turning to `CCCOc1ccc(NC(=O)C2CC(=O)N/C(=N/N=C(C)/C=C/c3ccc(N(C)C)cc3)S2)cc1` (stereo not given), the cell number change is -13.5%. Besides, the AC50 under setting [2] was 2.59 µM [falling, partial curve].
For the compound `O=C(COC(=O)COc1cccc(C(F)(F)F)c1)NC(=O)NC1CCCCC1`, the cell number change was -41.9%. Moreover, the AC50 under setting [1] was 29.1 µM [falling, single point]. Moreover, under setting [2], the AC50 was 29.1 µM [falling, single point].
`CCc1ccc(NS(=O)(=O)c2ccc3[nH]cc(C(=O)N4CCCCC4)c(=O)c3c2)cc1`: under setting [2], the AC50 is 0.0259 µM [falling, full curve].
`CC(c1cccnc1)N(C(=O)Nc1ccccc1)C1CCCCC1` (stereo not given): the cell number change was determined as 20.4%. Moreover, under setting [2], the AC50 is 29.1 µM [rising, single point].
For the compound `CCOc1cc(CNCCCN2CCOCC2)cc(Cl)c1OCC(=O)NC(C)(C)C`, the cell number change was found to be 2.76%. In addition, the AC50 under setting [2] was 0.103 µM [rising, full curve, poor fit].
For the compound `Cc1cc(Br)ccc1OCCN1CCCC1`, the cell number change is 10.2%. The AC50 under setting [2] was 13 µM [rising, partial curve].
Consider `COC(=O)C(C)N(C#N)c1nc(C)cc(C)n1` (stereo not given), for which the cell number change is -17.3%. The AC50 under setting [2] is 0.731 µM [falling, single point].
Regarding `O=C(COC(=O)c1ccc[nH]c1=O)NCC12CC3CC(CC(C3)C1)C2`, the cell number change is -8.9%.
As to `O=C1C2C3c4ccccc4C(Br)(c4ccccc43)C2C(=O)N1c1ccccc1O` (stereo not given), the cell number change is -35.3%. The AC50 under setting [1] was 29.1 µM [falling, single point].
Regarding `Cc1ccc(C2C3=C(CCCC3=O)Nc3[nH]c(=S)[nH]c(=O)c32)cc1` (stereo not given), the cell number change came to 0.667%. Besides, the AC50 under setting [1] is 7.31 µM [falling, partial curve, poor fit]. For the same compound, the AC50 under setting [2] was 6.51 µM [falling, single point].
Consider `O=C(C1CCCN(Cc2ccccc2F)C1)N1CCCC1` (stereo not given), for which the cell number change came out at 6.45%. Further, the AC50 under setting [2] was 16.4 µM [rising, single point].
Consider `Cc1ccc(N=C(N(C)C)P(=O)(N(C)C)N(C)C)c(C)c1`, for which the cell number change was -42.4%. The AC50 under setting [1] is 0.0291 µM [falling, full curve, poor fit].
With `O=C(Nc1ccccc1)N1CCC(C(=O)N2CCN(S(=O)(=O)c3cccc(F)c3)CC2)CC1`, the cell number change turned out to be 8.99%. Besides, the AC50 under setting [2] is 0.731 µM [rising, full curve].
For the compound `COc1ccc(OC)c(S(=O)(=O)Nc2ccc(Oc3ccccc3)cc2)c1`, the cell number change was -36%. Also, under setting [1], the AC50 is 0.082 µM [falling, full curve]. Under setting [2], the AC50 is 0.082 µM [falling, full curve].
For `CCOc1ccc(-n2c(N)c(C(=O)NCc3cccnc3)sc2=S)cc1`, the cell number change came out at 63.9%. Besides, the concentration at half-maximal activity (AC50) under setting [1] was 18.4 µM [rising, single point].
Consider `C=C(C)c1cccc(C(C)(C)NC(=O)Nc2cc(C)ccn2)c1`, for which the cell number change was -24.8%. Besides, the concentration at half-maximal activity (AC50) under setting [2] is 20.6 µM [falling, single point].
Consider `CCN1CCCC1CNC(=O)c1cc2cc(OC)c(OC)cc2[nH]1` (stereo not given), for which the cell number change is -6.61%. Moreover, the AC50 under setting [2] was 0.731 µM [rising, single point].
Regarding `NC(=O)C1CCN(C(=O)c2ccc(F)c(S(=O)(=O)N3CCOCC3)c2)CC1`, the cell number change was -8.2%. Besides, the AC50 under setting [1] was 6.51 µM [falling, single point]. The AC50 under setting [2] is 6.51 µM [falling, single point].
`O=C(c1cccc([N+](=O)[O-])c1)N1CCCC(C(=O)N2CCc3ccccc3C2)C1` (stereo not given): the AC50 under setting [1] is 0.00461 µM [rising, full curve, poor fit].
Take `COc1ccc(Cl)cc1N1C(=O)[C@@H]2C(c3cccc(OC)c3OC)=NO[C@@H]2C1=O`: the cell number change came out at 3.35%. Under setting [2], the AC50 was 58 µM [falling, partial curve, poor fit].
With `O=C(c1ccc2c(c1)OCCO2)N1CCN(S(=O)(=O)c2c(F)cccc2F)CC1`, the cell number change is -37%. The AC50 under setting [1] is 29.1 µM [falling, single point].
In the case of `CCC(C)n1c(=S)[nH]c2c(sc3ccc([N+](=O)[O-])cc32)c1=O` (stereo not given), the cell number change was -4.29%. The AC50 under setting [2] is 1.64 µM [falling, partial curve].
As for `Cc1ccc(S(=O)(=O)N2CCCC2C(=O)OCc2nc3ccccc3s2)cc1` (stereo not given), the AC50 under setting [2] was 6.51 µM [falling, single point].
Same read-out and setting: under `Cc1ccc(-c2nnc(SCC(=O)NC3CC3)o2)cc1` stands 9.2 µM [falling, partial curve]; under `COc1ccc(N2CCN(C(=O)CSc3nnc4c(C)cc5c(C)cc(C)cc5n34)CC2)cc1`, 0.13 µM [rising, full curve, poor fit].
As for `CC(C)COC(=O)n1c(=O)oc2ccc(S(=O)(=O)N3CCCCC3)cc21`, the cell number change is -42.8%.
As to `CCn1c(COc2ccc(=O)n(-c3ccccc3)n2)nnc1SCc1ccc(C)cc1`, the cell number change was 1.6%. The AC50 under setting [2] was 7.31 µM [rising, partial curve].
`CC1CCCN(C2=C(NS(=O)(=O)c3ccc(Br)cc3)C(=O)c3ccccc3C2=O)C1` (stereo not given): the cell number change was -54.5%. In addition, the AC50 under setting [1] was 6.51 µM [falling, full curve]. The AC50 under setting [2] is 11.6 µM [falling, single point].
Turning to `CC(=O)c1cc(CN2CCCCC2)cc(OC(C)C)c1`, the cell number change was -26.1%. Besides, the AC50 under setting [1] was 1.46 µM [falling, full curve, poor fit]. Moreover, the AC50 under setting [2] was 3.66 µM [falling, full curve].
On to `NS(=O)(=O)c1cccc(NC(=O)CSc2nnc(-c3ccccc3F)n2C2CC2)c1`, for which the cell number change is -52.6%. Moreover, under setting [1], the AC50 was 20.6 µM [falling, single point]. Also, the AC50 under setting [2] was 29.1 µM [falling, single point].
For the compound `CN(C)Cc1c(O)ccc2oc(Cc3ccccc3)cc12`, the AC50 under setting [1] was 1.64 µM [falling, partial curve].
As to `CC(=O)c1ccc(S(=O)(=O)N(Cc2cc3cc4c(cc3[nH]c2=O)OCCO4)CC2CCCO2)cc1` (stereo not given), the cell number change is -4.68%. Further, under setting [2], the AC50 is 0.00461 µM [falling, full curve, poor fit].
As to `O=C(C1CC1)N1c2ccccc2Sc2ccccc21`, the cell number change is -25.7%. The AC50 under setting [2] is 0.411 µM [falling, partial curve, poor fit].
On to `O=C(COc1ccc(C(=S)N2CCOCC2)cc1)N1CCCC1`, for which the cell number change was -7.08%.
Consider `COC(=O)c1ccccc1S(=O)(=O)N1Cc2cc([N+](=O)[O-])ccc2Oc2ccccc21`, for which the cell number change was 39.6%. Further, the AC50 under setting [1] was 9.2 µM [rising, partial curve].
Consider `Cc1cccc(C#Cc2ccccc2)n1`, for which the cell number change came to 40.1%. Also, the AC50 under setting [1] is 0.082 µM [rising, full curve, poor fit]. Moreover, the AC50 under setting [2] is 4.61 µM [rising, full curve].

The values are drawn from PubChem BioAssay AID2685 (National Center for Advancing Translational Sciences (NCATS), 2010).
